Test results reported in PMC11099189.
No constants are given. Whether binding was seen depends on the method and setting. Binding seen in cells or lysates may run through a third protein. Some results given as binding are weak or reduced against the parent protein; the word gives no strength. For some of these results: Sequences can lack the tags named with a protein.

The chains behind the UniProt entries cited, without tags or fusion partners.
UniProt P53350: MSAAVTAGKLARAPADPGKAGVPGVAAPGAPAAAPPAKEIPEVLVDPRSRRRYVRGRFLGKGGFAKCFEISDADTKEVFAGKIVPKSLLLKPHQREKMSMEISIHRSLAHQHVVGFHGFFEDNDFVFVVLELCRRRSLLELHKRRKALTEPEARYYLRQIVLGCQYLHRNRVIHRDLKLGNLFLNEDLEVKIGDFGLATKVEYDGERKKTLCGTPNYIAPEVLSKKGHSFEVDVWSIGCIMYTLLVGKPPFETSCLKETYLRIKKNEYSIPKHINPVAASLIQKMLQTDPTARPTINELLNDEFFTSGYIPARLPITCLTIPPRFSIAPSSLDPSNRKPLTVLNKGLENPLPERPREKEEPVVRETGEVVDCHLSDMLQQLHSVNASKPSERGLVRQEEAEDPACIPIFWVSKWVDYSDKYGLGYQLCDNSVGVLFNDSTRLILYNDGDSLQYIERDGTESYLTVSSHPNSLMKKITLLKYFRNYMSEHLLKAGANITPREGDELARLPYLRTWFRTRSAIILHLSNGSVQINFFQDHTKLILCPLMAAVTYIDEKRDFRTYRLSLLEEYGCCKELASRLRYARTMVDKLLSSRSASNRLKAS

T1: endogenous PKMYT1 (human (endogenous in Pa-Tu-8988T, YAPC, Pa-Tu-8902, DAN-G)) (UniProt Q99640)
T1 sequence: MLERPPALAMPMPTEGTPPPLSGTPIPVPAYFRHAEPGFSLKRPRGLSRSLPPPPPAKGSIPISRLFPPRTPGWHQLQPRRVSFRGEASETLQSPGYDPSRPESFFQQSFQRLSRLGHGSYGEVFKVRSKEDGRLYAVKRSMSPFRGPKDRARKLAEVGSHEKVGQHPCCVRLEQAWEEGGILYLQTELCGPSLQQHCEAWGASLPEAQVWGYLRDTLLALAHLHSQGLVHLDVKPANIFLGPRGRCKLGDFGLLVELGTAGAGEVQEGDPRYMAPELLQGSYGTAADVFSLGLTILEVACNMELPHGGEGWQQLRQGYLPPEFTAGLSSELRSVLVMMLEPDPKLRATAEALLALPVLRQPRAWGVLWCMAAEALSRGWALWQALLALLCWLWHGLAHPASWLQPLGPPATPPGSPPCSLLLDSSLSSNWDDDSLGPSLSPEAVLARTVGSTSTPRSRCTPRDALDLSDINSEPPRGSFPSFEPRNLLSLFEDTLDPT

T2: Flag-tagged PKMYT1 (human) (UniProt Q99640)
T2 sequence: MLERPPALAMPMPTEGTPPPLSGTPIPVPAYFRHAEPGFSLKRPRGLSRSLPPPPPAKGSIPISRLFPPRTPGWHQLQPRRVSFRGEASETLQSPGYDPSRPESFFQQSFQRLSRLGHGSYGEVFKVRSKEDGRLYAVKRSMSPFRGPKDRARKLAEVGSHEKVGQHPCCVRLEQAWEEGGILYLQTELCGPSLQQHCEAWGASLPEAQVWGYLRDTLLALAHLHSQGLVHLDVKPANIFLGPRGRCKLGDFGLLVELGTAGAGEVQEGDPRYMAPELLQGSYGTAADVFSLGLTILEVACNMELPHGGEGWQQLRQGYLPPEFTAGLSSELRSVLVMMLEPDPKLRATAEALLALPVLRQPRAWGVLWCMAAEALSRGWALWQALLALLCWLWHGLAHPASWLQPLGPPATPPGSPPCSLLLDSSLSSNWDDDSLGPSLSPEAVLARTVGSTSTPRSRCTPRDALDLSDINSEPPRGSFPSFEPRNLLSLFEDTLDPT


Experiments:
[1] = target: T1, endogenous PKMYT1 (human (endogenous in Pa-Tu-8988T, YAPC, Pa-Tu-8902, DAN-G)); experiment: co-IP; endogenous proteins in YAPC, Pa-Tu-8902 and DAN-G cells; 3-5 mg whole-cell lysate, 2 ug anti-PKMYT1, anti-PLK1 or IgG, protein G-sepharose, overnight; immunoblotting
[2] = target: T2, Flag-tagged PKMYT1 (human); experiment: co-IP; Pa-Tu-8988T cells transduced with Flag-PKMYT1, Flag-PLK1 or Flag lentivirus; 2.5 mg whole-cell lysate, 1 ug anti-Flag antibody, protein G-sepharose, overnight; immunoblotting
[3] = target: endogenous PLK1 (human (endogenous in Pa-Tu-8988T, YAPC, Pa-Tu-8902, DAN-G)) (UniProt P53350); experiment: co-IP; endogenous proteins in YAPC, Pa-Tu-8902 and DAN-G cells; 3-5 mg whole-cell lysate, 2 ug anti-PKMYT1, anti-PLK1 or IgG, protein G-sepharose, overnight; immunoblotting
[4] = target: Flag-PLK1 (human) (UniProt P53350); experiment: co-IP; Pa-Tu-8988T cells transduced with Flag-PKMYT1, Flag-PLK1 or Flag lentivirus; 2.5 mg whole-cell lysate, 1 ug anti-Flag antibody, protein G-sepharose, overnight; immunoblotting

Molecule	binding [1]	binding [2]	binding [3]	binding [4]
endogenous PLK1 (from UniProt P53350 1-603) (enzyme)	binds	binds		
endogenous PKMYT1 (enzyme, UniProt Q99640 1-499) MLERPPALAMPMPTEGTPPPLSGTPIPVPAYFRHAEPGFSLKRPRGLSRSLPPPPPAKGSIPISRLFPPRTPGWHQLQPRRVSFRGEASETLQSPGYDPSRPESFFQQSFQRLSRLGHGSYGEVFKVRSKEDGRLYAVKRSMSPFRGPKDRARKLAEVGSHEKVGQHPCCVRLEQAWEEGGILYLQTELCGPSLQQHCEAWGASLPEAQVWGYLRDTLLALAHLHSQGLVHLDVKPANIFLGPRGRCKLGDFGLLVELGTAGAGEVQEGDPRYMAPELLQGSYGTAADVFSLGLTILEVACNMELPHGGEGWQQLRQGYLPPEFTAGLSSELRSVLVMMLEPDPKLRATAEALLALPVLRQPRAWGVLWCMAAEALSRGWALWQALLALLCWLWHGLAHPASWLQPLGPPATPPGSPPCSLLLDSSLSSNWDDDSLGPSLSPEAVLARTVGSTSTPRSRCTPRDALDLSDINSEPPRGSFPSFEPRNLLSLFEDTLDPT			binds	binds
